Consider 1 substance from paper PMC5727183.

Sequences of proteins named here, by UniProt entry; tags and fusion partners are left off. Residues count along the entry.
UniProt P55854, residues 1-92: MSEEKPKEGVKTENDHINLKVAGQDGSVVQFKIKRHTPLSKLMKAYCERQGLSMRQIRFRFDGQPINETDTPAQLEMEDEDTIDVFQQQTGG
UniProt Q5UIP0: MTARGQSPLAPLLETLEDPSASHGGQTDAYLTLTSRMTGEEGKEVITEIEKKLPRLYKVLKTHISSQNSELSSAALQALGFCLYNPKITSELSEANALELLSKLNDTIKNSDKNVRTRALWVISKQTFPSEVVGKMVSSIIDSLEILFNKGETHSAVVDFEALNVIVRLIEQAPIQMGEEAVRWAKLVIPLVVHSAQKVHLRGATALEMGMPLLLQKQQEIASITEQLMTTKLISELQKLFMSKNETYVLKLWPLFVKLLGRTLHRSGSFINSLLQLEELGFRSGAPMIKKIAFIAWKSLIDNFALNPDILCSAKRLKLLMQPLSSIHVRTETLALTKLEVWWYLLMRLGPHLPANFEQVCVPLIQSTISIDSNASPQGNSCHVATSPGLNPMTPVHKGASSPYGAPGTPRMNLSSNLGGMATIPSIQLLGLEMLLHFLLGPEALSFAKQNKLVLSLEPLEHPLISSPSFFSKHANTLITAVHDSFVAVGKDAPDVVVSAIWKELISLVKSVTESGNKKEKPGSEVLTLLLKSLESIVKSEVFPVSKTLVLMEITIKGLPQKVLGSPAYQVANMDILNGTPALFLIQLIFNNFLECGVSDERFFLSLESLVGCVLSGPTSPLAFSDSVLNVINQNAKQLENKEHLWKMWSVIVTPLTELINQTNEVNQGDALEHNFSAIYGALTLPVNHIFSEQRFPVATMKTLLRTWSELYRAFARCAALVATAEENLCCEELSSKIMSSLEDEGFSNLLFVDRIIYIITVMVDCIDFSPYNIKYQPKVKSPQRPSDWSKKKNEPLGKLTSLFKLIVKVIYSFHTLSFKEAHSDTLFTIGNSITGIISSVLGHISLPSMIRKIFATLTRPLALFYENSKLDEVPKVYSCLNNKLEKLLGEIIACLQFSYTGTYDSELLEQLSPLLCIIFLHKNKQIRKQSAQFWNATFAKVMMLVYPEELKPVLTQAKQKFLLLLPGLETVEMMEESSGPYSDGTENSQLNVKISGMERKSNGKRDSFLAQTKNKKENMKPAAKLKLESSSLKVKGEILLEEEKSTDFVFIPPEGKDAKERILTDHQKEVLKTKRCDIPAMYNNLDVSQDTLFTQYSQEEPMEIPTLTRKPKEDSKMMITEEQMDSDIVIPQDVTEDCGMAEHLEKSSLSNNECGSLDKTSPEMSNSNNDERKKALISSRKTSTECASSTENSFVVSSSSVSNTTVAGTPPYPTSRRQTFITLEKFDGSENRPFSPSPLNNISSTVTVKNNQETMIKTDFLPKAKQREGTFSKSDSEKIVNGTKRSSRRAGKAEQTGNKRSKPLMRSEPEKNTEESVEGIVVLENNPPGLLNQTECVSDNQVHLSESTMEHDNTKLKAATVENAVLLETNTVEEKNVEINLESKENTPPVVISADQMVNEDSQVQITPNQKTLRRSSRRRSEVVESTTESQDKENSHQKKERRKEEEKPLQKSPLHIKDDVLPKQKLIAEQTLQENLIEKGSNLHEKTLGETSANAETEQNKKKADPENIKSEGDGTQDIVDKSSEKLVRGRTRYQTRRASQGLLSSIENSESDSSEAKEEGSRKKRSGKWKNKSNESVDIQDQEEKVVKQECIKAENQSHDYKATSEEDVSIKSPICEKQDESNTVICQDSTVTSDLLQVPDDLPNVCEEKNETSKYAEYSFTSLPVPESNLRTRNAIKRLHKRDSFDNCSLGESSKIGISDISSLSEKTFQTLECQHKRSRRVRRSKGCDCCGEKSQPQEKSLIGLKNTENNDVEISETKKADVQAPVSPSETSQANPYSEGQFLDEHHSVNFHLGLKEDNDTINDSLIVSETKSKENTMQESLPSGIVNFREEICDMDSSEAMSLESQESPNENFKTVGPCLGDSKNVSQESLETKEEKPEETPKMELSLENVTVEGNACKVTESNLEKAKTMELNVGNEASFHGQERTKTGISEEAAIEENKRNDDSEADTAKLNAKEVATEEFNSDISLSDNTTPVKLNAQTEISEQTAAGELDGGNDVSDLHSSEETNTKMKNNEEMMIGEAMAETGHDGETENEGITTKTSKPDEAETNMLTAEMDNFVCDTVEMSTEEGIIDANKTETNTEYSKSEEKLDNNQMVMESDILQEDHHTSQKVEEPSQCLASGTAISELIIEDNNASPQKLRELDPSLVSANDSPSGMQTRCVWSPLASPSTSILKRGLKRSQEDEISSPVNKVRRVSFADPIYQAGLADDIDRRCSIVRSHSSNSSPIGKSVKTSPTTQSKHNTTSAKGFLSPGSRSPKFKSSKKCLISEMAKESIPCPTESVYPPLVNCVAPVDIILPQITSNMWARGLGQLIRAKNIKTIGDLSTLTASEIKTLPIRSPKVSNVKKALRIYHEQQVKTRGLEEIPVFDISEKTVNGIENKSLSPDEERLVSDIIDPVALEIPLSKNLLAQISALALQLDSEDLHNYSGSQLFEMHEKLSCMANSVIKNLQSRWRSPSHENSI

Assay [1] concerns the target T1, FLAG-PIAS4 (UniProt Q8N2W9).
T1 sequence: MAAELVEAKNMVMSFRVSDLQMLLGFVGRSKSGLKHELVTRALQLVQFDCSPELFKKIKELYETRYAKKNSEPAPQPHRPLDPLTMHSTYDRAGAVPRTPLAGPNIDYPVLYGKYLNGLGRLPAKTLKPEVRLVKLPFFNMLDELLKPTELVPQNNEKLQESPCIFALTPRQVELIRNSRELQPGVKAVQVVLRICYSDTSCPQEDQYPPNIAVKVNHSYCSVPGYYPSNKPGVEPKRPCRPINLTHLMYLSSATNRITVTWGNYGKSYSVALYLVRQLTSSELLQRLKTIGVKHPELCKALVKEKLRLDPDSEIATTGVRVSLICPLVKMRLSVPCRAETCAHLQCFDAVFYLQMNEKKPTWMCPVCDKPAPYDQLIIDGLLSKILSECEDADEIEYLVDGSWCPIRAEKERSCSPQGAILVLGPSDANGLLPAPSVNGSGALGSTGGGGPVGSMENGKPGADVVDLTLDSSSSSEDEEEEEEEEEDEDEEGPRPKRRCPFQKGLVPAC
The assay is described as follows: co-IP; Flag-IP from U2OS cells transiently transfected with FLAG-PIAS4 and synchronized at G1, S and G2 (double thymidine block and release), with or without DNA damage; blot with RIF1 antibody.

For assay [2], the target named is RFP-SUMO3 (UniProt P55854). The assay is described as follows: co-IP; RFP-Trap A beads (Chromotek) on lysates of U2OS cells transfected with RFP-SUMO2, RFP-SUMO3 or RFP empty vector, mock or 2.5 µg/ml bleocin; EBC buffer (50 mM Tris pH 7.3, 0.5% NP-40, 1 mM MgCl2, 50 mM iodoacetamide), Benzonase, NaCl brought to 300 mM; blot with RIF1 antibody.

These are yes or no findings as the source states them, for the method shown. In cells and extracts the contact can be indirect. Some results given as binding are weak or reduced against the parent protein; the word gives no strength. For some assays here: Sequences can lack the tags named with a protein.

Consider RIF1 (from UniProt Q5UIP0 1-2472), for which the binding entry in assay [1] and in assay [2] was “binds” throughout.
